PubChem BioAssay AID504793 – Drosophila RNAi Screening Center | 2011

Assay: 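Genes required for cells to halt at G2/M after double-strand DNA breaks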 (primary screen)
Cell system: Drosophila S2R+ cells
Knock-down reagent: long dsRNA against Drosophila genes, about 0.25 µg dsRNA per well
Timing: 4 days of dsRNA, then 4 hours of drug before read-out
Conditions: doxorubicin 0.5 µM for 4 hours to cause double-strand breaks, in cells also given a low, harmless dose of dsRNA against nbs to sensitise the assay
Detection: 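Mitotic index as the number of phospho-histone H3-positive cells in each well following doxorubicin, given as raw counts without normalisation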
Reading the numbers: mitotic cells: higher = more cells in mitosis, weaker G2 arrest
Hit rule: 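Genes are called active only when high mitotic counts were reproduced with independent dsRNAs and mitosis was checked for delay without damage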
Meaning of the calls: active = confirmed in follow-up tests; inactive = not confirmed
The deposit covers about 23,000 reagents; shown is an unselected part of those that have a named target and a result. Of all reagents, 62 (0.27%) were called active. 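Calls come from follow-up tests whose scores are not deposited, so confirmed genes may have low counts here; counts are not normalised per plate.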 Raw values are not corrected between plates.

For cd (GeneID 42681) [DRSC16157], the values are mitotic cells, replicate 1 = 7; inactive.
SCaMC (GeneID 39415) [DRSC10293] gave mitotic cells, replicate 1 = 10; inactive.
For SCaMC (GeneID 39415) [DRSC10415], the entry reads mitotic cells, replicate 1 = 7; inactive.
SCaMC (GeneID 39415) [DRSC28518] gave mitotic cells, replicate 1 = 4; inactive.
TpnC73F (GeneID 39916) [DRSC11307] scored mitotic cells, replicate 1 = 3; inactive.
For Cdk2 (GeneID 42453) [DRSC16921], the values are mitotic cells, replicate 1 = 8; inactive.
After knock-down of Cpr72Ea (GeneID 39814) [DRSC10451] the results were mitotic cells, replicate 1 = 6; inactive.
Silencing of CG18269 (GeneID 33785) [DRSC02660] gave: mitotic cells, replicate 1 = 6; inactive.
With knock-down of beat-IIIa (GeneID 35035) [DRSC01577], the screen gave mitotic cells, replicate 1 = 6; inactive.
For beat-IIIa (GeneID 35035) [DRSC02178], the entry reads mitotic cells, replicate 1 = 2; inactive.
For CG31546 (GeneID 40691) [DRSC12317] the deposit lists mitotic cells, replicate 1 = 6; inactive.
With knock-down of CG31546 (GeneID 40691) [DRSC25825], the record shows mitotic cells, replicate 1 = 6; inactive.
Pkg21D (GeneID 33253) [DRSC00772] showed mitotic cells, replicate 1 = 2; inactive.
Against Pkg21D (GeneID 33253) [DRSC29092], the entry reads mitotic cells, replicate 1 = 4; inactive.
